1 substance from paper doi:10.1101/093054 (bioRxiv, 2016) can be followed below.

The test addresses T1, ZYG-9::mCherry (C. elegans) (UniProt G5EEM5).
T1 sequence: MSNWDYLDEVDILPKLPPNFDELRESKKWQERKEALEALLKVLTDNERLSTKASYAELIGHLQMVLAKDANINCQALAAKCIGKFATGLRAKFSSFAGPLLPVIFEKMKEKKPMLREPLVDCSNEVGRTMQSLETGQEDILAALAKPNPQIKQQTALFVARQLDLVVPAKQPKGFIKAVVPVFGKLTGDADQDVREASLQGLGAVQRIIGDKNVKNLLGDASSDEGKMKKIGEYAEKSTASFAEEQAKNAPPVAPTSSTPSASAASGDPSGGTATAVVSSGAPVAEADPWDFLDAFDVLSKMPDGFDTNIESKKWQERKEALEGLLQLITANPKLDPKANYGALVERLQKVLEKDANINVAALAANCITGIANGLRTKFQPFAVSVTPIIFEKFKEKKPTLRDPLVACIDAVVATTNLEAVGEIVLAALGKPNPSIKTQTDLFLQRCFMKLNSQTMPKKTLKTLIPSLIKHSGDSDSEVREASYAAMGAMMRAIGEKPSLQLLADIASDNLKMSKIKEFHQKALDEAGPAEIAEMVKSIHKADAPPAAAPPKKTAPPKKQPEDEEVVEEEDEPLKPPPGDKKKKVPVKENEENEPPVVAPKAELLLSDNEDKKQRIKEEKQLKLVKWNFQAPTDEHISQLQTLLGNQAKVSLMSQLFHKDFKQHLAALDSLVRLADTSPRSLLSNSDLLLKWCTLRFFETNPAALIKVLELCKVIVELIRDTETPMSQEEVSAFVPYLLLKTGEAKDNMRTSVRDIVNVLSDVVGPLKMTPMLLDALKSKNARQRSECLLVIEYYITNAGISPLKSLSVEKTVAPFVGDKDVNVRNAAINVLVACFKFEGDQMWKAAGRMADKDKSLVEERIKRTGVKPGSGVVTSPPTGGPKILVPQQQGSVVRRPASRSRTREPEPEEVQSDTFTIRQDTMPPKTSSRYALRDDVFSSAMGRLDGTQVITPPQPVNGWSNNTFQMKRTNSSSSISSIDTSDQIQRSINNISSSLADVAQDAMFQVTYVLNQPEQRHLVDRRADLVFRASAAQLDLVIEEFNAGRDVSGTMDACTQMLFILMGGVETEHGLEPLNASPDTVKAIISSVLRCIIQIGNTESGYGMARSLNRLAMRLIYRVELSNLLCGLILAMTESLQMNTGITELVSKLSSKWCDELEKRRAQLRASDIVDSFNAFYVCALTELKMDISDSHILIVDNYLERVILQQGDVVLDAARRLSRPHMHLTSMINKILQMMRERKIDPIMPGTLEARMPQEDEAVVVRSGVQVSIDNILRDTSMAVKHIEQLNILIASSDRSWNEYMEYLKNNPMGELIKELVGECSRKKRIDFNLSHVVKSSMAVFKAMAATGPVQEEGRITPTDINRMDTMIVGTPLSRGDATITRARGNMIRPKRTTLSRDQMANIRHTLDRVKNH
The experiment in a line: fluorescence microscopy of aggregates.

Results are given in words; binding and its absence hold for the method and conditions named. Binding calls can cover weak binding; strength is not graded here.

Turning to TPXL-1::GFP (C. elegans), the binding result was “binds”.
